Test results as given in paper PMC11414581.
These are yes or no findings as the source states them, for the method shown. In cells and extracts the contact can be indirect. Some binding calls cover weakened binding; strength is not graded here.

Amino acid sequences for entries named in this document (tags omitted). A change or cut given only in a name is not applied to a line headed by its entry. Chains listed by the source or under a name are the forms on record and can include a tag or linker. Residues count along the entry.
UniProt Q9H6L5: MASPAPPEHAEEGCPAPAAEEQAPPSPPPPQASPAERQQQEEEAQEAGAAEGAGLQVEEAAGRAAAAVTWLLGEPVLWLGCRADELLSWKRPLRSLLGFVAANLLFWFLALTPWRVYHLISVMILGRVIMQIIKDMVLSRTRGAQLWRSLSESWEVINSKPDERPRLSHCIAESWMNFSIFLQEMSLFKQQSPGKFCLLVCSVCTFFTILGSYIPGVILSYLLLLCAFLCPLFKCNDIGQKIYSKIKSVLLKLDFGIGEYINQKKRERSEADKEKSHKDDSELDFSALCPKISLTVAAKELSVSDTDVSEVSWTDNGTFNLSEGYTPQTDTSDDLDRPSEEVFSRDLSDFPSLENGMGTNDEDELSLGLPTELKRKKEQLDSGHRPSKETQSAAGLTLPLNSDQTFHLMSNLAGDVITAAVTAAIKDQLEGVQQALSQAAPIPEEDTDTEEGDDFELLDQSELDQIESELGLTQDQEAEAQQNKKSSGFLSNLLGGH
FLAG-FAM134B-1 ΔC4: residues 1-431 of Q9H6L5
FLAG-FAM134B-1 ΔC1 (Q9H6L5, form named): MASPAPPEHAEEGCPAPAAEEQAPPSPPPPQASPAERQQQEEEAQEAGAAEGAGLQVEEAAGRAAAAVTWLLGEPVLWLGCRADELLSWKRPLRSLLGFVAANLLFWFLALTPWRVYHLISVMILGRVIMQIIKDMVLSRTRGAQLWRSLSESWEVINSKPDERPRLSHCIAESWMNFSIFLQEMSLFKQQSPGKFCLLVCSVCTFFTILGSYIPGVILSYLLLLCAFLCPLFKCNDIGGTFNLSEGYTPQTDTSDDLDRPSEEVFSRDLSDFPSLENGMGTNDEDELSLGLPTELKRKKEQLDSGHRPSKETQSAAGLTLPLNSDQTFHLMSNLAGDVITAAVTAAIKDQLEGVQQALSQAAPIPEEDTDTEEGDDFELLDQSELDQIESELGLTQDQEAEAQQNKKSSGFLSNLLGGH
FLAG-FAM134B-1 ΔC2 (Q9H6L5, form named): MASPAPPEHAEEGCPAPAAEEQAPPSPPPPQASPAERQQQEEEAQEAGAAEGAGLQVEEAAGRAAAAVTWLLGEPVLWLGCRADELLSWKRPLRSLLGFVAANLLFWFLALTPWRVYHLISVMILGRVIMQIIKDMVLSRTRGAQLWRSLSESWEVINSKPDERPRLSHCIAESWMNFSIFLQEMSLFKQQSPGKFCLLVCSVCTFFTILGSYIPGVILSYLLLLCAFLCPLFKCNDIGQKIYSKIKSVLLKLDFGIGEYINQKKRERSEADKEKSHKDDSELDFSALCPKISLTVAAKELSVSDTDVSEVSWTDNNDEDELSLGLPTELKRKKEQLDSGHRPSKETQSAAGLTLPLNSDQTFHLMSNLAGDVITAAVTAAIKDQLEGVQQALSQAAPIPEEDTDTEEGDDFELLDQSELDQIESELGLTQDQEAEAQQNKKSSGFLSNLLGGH
FLAG-FAM134B-1 ΔC3 (Q9H6L5, form named): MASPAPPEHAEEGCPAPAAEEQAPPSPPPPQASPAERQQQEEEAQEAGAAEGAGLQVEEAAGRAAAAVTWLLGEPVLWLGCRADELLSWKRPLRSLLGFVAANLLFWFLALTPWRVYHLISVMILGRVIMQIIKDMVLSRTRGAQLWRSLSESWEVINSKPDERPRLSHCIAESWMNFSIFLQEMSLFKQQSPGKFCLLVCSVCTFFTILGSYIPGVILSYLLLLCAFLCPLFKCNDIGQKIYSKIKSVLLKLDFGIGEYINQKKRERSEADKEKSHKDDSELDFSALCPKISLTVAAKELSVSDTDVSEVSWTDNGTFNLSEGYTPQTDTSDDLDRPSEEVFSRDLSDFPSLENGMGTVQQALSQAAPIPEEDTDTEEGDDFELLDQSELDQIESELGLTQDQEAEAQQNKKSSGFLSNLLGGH
UniProt Q9C0E8: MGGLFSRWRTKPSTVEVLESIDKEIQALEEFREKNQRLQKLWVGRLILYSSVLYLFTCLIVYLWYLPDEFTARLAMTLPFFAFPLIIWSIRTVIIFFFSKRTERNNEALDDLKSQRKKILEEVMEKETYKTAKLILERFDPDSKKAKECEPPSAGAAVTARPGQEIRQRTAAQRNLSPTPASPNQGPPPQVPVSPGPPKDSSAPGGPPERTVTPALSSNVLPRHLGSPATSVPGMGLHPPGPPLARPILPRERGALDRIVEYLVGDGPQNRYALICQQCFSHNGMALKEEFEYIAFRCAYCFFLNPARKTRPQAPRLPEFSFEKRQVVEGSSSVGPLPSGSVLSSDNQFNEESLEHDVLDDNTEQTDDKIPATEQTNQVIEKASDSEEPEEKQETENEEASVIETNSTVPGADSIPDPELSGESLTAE
STIM1 ΔC1-mCherry (Q13586, residues 23-474): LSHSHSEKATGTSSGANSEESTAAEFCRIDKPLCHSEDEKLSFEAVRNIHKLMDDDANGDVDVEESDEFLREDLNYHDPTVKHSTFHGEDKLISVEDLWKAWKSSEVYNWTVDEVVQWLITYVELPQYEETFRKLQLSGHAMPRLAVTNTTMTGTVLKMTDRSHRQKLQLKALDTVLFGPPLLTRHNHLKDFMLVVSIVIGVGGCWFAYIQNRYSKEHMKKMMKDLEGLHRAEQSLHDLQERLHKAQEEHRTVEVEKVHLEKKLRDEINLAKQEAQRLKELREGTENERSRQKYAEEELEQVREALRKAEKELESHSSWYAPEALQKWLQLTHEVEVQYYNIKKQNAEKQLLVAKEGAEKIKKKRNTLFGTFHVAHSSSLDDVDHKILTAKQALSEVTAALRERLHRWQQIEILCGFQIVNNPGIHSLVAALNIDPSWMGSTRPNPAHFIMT
STIM1 ΔC2-mCherry (Q13586, residues 23-343): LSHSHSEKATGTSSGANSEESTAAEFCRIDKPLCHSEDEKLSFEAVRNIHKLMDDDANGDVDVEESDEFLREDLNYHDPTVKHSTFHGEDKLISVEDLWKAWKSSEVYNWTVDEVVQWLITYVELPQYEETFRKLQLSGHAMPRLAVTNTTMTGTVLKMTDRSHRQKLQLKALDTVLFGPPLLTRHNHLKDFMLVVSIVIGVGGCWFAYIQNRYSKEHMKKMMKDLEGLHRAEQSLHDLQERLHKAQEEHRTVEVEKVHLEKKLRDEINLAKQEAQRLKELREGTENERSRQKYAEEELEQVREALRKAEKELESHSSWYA

How the values were obtained:
Assay in all cases: co-IP; HEK293 cells cotransfected for 48 h; lysed in buffer A (50 mM Hepes-NaOH pH 7.5, 120 mM NaCl, 1 mM EDTA, 0.1 mM ZnSO4, 1% NP-40); anti-FLAG M2 affinity gel, 4 °C, 3 h; immunoblot with anti-mCherry pAb and anti-FLAG pAb
[1] = molecular target: FLAG-FAM134B-1 WT (human) (UniProt Q9H6L5)
[2] = molecular target: FLAG-FAM134B-1 ΔC1 (human) (UniProt Q9H6L5)
[3] = molecular target: FLAG-FAM134B-1 ΔC2 (human) (UniProt Q9H6L5)
[4] = molecular target: FLAG-FAM134B-1 ΔC3 (human) (UniProt Q9H6L5)
[5] = molecular target: FLAG-FAM134B-1 ΔC4 (human) (UniProt Q9H6L5)

| Substance | binding [1] | binding [2] | binding [3] | binding [4] | binding [5] |
| --- | --- | --- | --- | --- | --- |
| Lnp-mCherry (from UniProt Q9C0E8 1-428) | binds | binds | binds | binds | binds |
| STIM1 ΔC1-mCherry (from UniProt Q13586-2 23-474) (domain or fragment) | binds | – | – | – | – |
| STIM1 ΔC2-mCherry (from UniProt Q13586-2 23-343) (domain or fragment) | binds | – | – | – | – |
